For at least one compound, name, drawing or mass did not settle the structure. Some results were stated once for a whole list of compounds, not compound by compound. Some compounds share one range, which may span the group rather than tell each member.
Assays:
HeLa cells = format: cell-based; details: complex 40 μM, 37° C., 6 h
From the text: The results particularly highlight the potential of the luminogenic transition metal-based polypyridyl complexes of the present invention for bioorthogonal labeling. […] Importantly, although the cellular uptake of complex 2b was substantially higher, it was much less cytotoxic than complex 4b toward the pretreated cells. […] The results also highlight the potential therapeutic use of intracellular bioorthogonal coupling reactions in activating the cytotoxicity of metallo drugs.
For determining the cytotoxicity of complexes 1 b 5b, HeLa cells were seeded in a 96-well flat-bottomed microplate (about 10,000 cells well^−1) in growth medium (100 μL) and incubated at 37° C. under a 5% CO2 atmosphere for 24 h. The cells were then incubated in either blank medium or growth medium/DMSO (99:1, v/v) (100 μL) containing BCN-C10 (200 μM) in the dark at 37° C. under a 5% CO2 atmosphere for 1 h. The medium was then removed, the cell layer was washed with PBS, and further incubated in growth medium/DMSO (99:1, v/v) (100 μL) containing the ruthenium(II) complexes (40 μM) in the dark at 37° C. under a 5% CO2 atmosphere for 6, 12, or 24 h. Wells containing untreated cells were used as blank control. The microplate was incubated at 37° C. under a 5% CO2 atmosphere for another 4 h. The growth medium was then removed, and DMSO (200 μL) was added to each well. The microplate was further incubated for 15 min. The absorbance of the solutions at 570 nm was measured with a SPECTRAmax 340 microplate reader.

[1] = Photophysical data (emission wavelength, lifetime, quantum yield); format: physicochemical; details: for emission quantum yields (ϕem): upper bound over all media of Tables 1 and 2
Experimental: Electronic absorption spectra were recorded on an Agilent 8453 diode array spectrophotometer. Steady-state emission spectra were recorded on a HORIBA JOBIN YVON Fluorolog TCSPC spectrofluorometer. Unless specified otherwise, all solutions for photophysical studies were degassed with no fewer than four successive freeze-pump-thaw cycles and stored in a 10-cm^3 round bottomed flask equipped with a side-arm 1-cm fluorescence cuvette and sealed from the atmosphere by a Rotaflo HP6/6 quick-release Teflon stopper. Luminescence quantum yields were measured by the optically dilute method (Demas, J. N. and Crosby, G. A., J. Phys. Chem. 1971, 75, 991) using an aerated aqueous solution of [Ru(bpy)3]Cl2 (ϕem=0.028, λex=455 nm) as the standard solution (Wallace, L. and Rillema, D. P., Inorg. Chem., 1993, 32, 3836). The concentrations of the standard and sample solutions were adjusted until the absorbance at 455 nm was 0.1. The emission lifetimes were measured on a HORIBA JOBIN YVON Fluorolog TCSPC spectrofluorometer in the Fast MCS lifetime mode with a NanoLED N-375 as the excitation source.
The very low emission quantum yield of complexes 1a-5b compared with other related iridium(III) and ruthenium(II) systems are expected to be due to quenching by the nitrone moiety.
In particular, the emission quantum yields of the iridium(III) complexes 1a, 2a and 3a (ϕem<0.021; Table 1) were much lower than those of common cyclometalated iridium(Ill) polypyridyl complexes (Li, S. P.-Y. et al., Chem. Eur. J. 2010, 16, 8329; Li, S. P.-Y. et al., Biomaterials 2013, 34, 7519; Lo, K. K.-W. et al., Chem. Commun. 2013, 49, 4271) which is expected to be a consequence of efficient quenching associated with isomerization of the C═N group.

[2] = SPANC reaction kinetics with BCN—OH by UV/Vis absorption spectroscopy; format: physicochemical; details: for k2 relative to that of the free ligand bpy-nitrone-Me: BCN—OH in MeOH at 298 K
Experimental: The reactivity of the iridium(III) and ruthenium(II) pyridyl complexes toward a strained alkyne derivative BCN—OH in MeOH at 298 K was studied. The second-order rate constants (k2) of the strain-promoted alkyne-nitrone cycloaddition (SPANC) reaction of complexes 1a-5b are shown in Tables 3 and 4, respectively. The k2 values of the iridium(III) complexes 1a, 2a and 3a and the ruthenium(II) complexes 1b, 2b, 3b, 4b, and 5b were determined to be 0.116-0.238 and 0.078-3.06 M^−1 s^−1, respectively, which are about 1.95-76.5 times that of the free ligand bpy-nitrone-Me (k2=0.040 M^−1 s^−1). This is attributed to the electron-withdrawing effects of the positively-charged metal centers. […] The accelerated reaction kinetics is assumed to originate from the presence of the more electron-withdrawing phenyl ring at the N-position of the nitrone moiety. Thus, the accelerated reaction kinetics render complexes 1a-5b highly advantageous bioorthogonal probes for biomolecules modified with a strained alkyne moiety.
More specifically, the SPANC reaction kinetics of complexes 1a 5b was studied by UV/Ms absorption spectroscopy. For the ligand bpy-nitrone-Me and the iridium(III) complexes 1a-3a, the k2 values were measured under pseudo first order conditions with a 25- to 100-fold excess of BCN—OH in MeOH at 298 K. The reaction process was followed by monitoring the exponential decay of the absorbance at 306-342 nm upon addition of BCN—OH. The final concentrations of the nitrone compounds were 10 μM and those of BCN—OH ranged from 0.25 to 1.0 mM. For the ruthenium(II) complexes 1b-5b, the k2 values were determined under pseudo first order conditions with a 50- to 200-fold excess of BCN—OH in MeOH at 298 K. The reaction process was monitored by following the exponential decay of the absorbance at 329 nm. The final concentrations of the complexes were 10 μM and those of BCN—OH ranged from 0.5 to 2.0 mM. […]

[3] = Glass EtOH/MeOH (4:1, v/v), 77 K

| SMILES | Percentage of survival (HeLa cells) | λem ([1]; CH2Cl2, 298 K) | λem [1, 3] | emission quantum yields (ϕem) [1] | k2 relative to that of the free ligand bpy-nitrone-Me [2] | Second-order rate constants (k2) ([2]; reaction with BCN—OH in MeOH at 298 K) |
| --- | --- | --- | --- | --- | --- | --- |
| Cc1ccnc(-c2cc(/C=[N+](/C)[O-])ccn2)c1.F[P-](F)(F)(F)(F)F.F[P-](F)(F)(F)(F)F.[Ru+2].c1ccc(-c2ccccn2)nc1.c1ccc(-c2ccccn2)nc1 [Complex 1b] | > 91.37% | – | – | – | – | – |
| CCCCNC(=O)c1ccnc(-c2cc(C(=O)NCCCC)ccn2)c1.CCCCNC(=O)c1ccnc(-c2cc(C(=O)NCCCC)ccn2)c1.Cc1ccnc(-c2cc(/C=[N+](/C)[O-])ccn2)c1.F[P-](F)(F)(F)(F)F.F[P-](F)(F)(F)(F)F.[Ru+2] [Complex 2b] | > 91.37% | 629, 650 sh nm | 617, 660 sh nm | < 0.036 | 1.95-76.5 times | 0.078 to 3.06 M⁻¹ s⁻¹ |
| Cc1ccnc(-c2cc(/C=[N+](\[O-])c3ccccc3)ccn2)c1.F[P-](F)(F)(F)(F)F.F[P-](F)(F)(F)(F)F.[Ru+2].c1ccc(-c2ccccn2)nc1.c1ccc(-c2ccccn2)nc1 [Complex 5b] | > 91.37% | – | 582 (max), 631 nm | < 0.036 | 1.95-76.5 times | – |

— US10759994B2, “Luminogenic transition metal-based pyridyl complex and its use” (City University of Hong Kong, priority 2016, dated 2020)
